Reference: PMC4687125
Results are given in words; binding and its absence hold for the method and conditions named. Some results given as binding are weak or reduced against the parent protein; the word gives no strength. Sequences can lack the tags named with a protein.

Target: T1, serum response factor (SRF) (mouse (endogenous in NIH/3T3)) (UniProt Q9JM73)
T1 sequence: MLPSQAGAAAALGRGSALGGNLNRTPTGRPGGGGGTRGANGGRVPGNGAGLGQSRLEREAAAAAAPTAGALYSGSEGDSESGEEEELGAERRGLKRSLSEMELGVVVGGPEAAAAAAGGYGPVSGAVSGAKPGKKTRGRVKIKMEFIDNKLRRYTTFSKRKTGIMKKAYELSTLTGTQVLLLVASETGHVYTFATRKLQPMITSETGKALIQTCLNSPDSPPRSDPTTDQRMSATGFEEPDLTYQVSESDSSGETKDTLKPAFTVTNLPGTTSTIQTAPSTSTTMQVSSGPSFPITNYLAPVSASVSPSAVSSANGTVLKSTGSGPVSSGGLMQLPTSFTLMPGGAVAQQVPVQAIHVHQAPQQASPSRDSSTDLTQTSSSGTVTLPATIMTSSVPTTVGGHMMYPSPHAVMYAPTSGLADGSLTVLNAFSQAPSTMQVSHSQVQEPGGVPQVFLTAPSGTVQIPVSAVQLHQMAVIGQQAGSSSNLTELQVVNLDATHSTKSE
Assay: native gel or EMSA; supershift with anti-SRF and anti-HA antibodies; 5 ug nuclear extract of NIH/3T3 cells transfected with Elk-1-HA; 32P end-labelled DUSP5 promoter probe with wild type CArG2 box and wild type proximal EBS; ternary complex on DNA

B1: HA tagged Elk-1 (protein, UniProt P19419 1-428)
chain: MDPSVTLWQFLLQLLREQGNGHIISWTSRDGGEFKLVDAEEVARLWGLRKNKTNMNYDKLSRALRYYYDKNIIRKVSGQKFVYKFVSYPEVAGCSTEDCPPQPEVSVTSTMPNVAPAAIHAAPGDTVSGKPGTPKGAGMAGPGGLARSSRNEYMRSGLYSTFTIQSLQPQPPPHPRPAVVLPSAAPAGAAAPPSGSRSTSPSPLEACLEAEEAGLPLQVILTPPEAPNLKSEELNVEPGLGRALPPEVKVEGPKEELEVAGERGFVPETTKAEPEVPPQEGVPARLPAVVMDTAGQAGGHAASSPEISQPQKGRKPRDLELPLSPSLLGGPGPERTPGSGSGSGLQAPGPALTPSLLPTHTLTPVLLTPSSLPPSIHFWSTLSPIAPRSPAKLSFQFPSSGSAQVHIPSISVDGLSTPVVLSPGPQKP
binding: binds
